# Data: the supplement of paper PMC12819154, “High-throughput peptide-centric local stability assay extends protein–ligand identification to membrane proteins, tissues and bacteria” (Nature Structural & Molecular Biology, 2025)
# Amino acid sequences for entries named in this document (tags omitted). A change or cut given only in a name is not applied to a line headed by its entry.
# UniProt Q14152, whole entry: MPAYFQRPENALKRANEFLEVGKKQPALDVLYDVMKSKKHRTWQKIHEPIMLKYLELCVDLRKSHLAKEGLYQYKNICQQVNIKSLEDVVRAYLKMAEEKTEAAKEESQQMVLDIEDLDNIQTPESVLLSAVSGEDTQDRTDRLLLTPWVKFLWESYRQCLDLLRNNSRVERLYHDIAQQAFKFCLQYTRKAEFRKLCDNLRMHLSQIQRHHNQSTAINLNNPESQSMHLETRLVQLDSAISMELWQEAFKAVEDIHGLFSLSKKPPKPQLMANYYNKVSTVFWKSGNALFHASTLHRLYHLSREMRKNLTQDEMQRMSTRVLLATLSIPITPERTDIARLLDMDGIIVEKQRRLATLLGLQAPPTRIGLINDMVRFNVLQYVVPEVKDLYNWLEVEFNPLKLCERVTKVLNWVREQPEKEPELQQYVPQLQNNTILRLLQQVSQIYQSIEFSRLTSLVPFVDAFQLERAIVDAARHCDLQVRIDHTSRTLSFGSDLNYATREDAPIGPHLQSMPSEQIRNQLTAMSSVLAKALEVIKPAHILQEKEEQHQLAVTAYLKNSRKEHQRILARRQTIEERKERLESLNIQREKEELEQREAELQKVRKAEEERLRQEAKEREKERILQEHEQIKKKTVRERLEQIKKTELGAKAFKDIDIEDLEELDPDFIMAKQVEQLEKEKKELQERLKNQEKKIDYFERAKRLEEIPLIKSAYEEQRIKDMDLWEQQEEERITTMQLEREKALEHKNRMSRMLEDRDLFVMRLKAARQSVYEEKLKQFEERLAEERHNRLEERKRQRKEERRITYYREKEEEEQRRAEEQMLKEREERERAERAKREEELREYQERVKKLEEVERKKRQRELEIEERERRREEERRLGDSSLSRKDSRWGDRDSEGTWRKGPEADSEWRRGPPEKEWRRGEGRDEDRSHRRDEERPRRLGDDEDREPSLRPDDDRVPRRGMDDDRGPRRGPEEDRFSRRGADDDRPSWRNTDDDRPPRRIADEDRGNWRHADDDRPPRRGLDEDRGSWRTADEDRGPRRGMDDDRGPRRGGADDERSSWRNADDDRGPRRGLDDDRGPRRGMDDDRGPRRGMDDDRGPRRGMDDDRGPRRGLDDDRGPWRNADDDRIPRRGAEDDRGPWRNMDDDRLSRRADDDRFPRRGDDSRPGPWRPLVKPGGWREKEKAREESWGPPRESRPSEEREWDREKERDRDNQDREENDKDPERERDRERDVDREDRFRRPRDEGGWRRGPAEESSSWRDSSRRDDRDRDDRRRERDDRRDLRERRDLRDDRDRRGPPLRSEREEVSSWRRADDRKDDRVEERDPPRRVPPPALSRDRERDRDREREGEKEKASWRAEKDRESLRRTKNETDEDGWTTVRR
# UniProt Q13829: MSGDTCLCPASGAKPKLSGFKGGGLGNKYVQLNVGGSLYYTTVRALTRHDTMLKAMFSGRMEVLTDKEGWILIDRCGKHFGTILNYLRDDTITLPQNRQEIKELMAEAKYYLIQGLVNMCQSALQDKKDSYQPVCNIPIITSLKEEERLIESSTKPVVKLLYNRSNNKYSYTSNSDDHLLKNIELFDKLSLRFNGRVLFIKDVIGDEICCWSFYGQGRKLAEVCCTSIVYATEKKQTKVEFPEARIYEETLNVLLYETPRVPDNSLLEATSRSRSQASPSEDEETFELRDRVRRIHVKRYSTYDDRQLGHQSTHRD
# UniProt Q14444, whole entry: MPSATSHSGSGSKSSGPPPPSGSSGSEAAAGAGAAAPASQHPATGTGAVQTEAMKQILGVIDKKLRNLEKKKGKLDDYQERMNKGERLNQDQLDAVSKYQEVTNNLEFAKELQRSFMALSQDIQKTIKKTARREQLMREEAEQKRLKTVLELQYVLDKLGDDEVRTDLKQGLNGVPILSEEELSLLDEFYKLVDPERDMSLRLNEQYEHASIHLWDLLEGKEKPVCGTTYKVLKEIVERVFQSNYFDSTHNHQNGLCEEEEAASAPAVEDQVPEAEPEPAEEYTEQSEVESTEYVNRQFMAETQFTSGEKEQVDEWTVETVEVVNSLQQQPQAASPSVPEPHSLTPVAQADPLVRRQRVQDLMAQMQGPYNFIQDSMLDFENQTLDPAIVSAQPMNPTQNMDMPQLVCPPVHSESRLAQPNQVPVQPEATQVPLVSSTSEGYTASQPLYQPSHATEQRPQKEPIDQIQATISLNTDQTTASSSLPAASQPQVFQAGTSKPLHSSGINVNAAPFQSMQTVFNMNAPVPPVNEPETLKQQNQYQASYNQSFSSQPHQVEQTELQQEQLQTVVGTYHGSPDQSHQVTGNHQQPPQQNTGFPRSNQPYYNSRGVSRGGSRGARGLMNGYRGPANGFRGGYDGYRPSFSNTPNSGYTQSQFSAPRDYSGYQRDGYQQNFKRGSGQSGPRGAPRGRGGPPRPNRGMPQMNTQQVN
# UniProt Q13614, whole entry: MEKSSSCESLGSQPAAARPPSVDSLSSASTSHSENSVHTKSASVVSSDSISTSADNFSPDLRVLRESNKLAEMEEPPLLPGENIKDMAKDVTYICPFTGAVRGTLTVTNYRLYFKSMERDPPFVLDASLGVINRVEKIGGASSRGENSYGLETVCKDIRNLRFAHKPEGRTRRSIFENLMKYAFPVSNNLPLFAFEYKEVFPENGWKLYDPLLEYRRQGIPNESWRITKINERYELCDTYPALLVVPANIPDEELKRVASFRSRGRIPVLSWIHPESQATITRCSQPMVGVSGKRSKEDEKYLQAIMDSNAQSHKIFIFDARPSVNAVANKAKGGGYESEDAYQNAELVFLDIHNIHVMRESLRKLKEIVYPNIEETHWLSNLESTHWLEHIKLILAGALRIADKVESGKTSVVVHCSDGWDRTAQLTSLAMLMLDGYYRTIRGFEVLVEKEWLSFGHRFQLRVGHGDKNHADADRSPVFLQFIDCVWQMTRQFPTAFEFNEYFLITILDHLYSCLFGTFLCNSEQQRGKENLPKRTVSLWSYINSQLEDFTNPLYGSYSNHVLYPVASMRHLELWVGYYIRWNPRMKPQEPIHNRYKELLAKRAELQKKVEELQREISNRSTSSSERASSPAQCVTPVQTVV
# UniProt Q14166: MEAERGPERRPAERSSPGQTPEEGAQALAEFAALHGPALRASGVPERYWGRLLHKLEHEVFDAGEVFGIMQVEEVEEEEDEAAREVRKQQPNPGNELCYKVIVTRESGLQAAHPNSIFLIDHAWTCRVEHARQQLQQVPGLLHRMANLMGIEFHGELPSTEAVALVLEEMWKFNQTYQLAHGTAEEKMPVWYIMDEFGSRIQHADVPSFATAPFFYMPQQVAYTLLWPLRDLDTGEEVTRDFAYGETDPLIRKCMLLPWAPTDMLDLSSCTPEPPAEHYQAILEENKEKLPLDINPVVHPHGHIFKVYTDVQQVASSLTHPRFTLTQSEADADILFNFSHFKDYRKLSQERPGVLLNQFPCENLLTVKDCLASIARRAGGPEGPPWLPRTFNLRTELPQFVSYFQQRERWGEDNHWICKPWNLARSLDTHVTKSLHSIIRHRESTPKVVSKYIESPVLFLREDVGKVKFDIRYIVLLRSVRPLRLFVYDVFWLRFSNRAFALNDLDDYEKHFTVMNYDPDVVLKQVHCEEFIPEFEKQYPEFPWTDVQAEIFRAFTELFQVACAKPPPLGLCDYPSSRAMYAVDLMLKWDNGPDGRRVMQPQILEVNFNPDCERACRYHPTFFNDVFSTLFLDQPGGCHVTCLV
# UniProt Q15007: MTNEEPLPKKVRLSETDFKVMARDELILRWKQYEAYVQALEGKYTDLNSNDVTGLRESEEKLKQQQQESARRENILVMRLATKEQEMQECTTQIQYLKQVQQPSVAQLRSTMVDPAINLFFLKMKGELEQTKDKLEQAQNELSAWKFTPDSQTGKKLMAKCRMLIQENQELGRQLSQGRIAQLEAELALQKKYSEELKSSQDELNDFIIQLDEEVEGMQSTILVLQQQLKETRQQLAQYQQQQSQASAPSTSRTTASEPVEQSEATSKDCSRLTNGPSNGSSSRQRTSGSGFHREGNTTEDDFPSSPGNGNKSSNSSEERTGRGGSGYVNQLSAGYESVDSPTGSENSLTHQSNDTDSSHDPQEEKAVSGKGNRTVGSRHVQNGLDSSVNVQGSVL
# UniProt Q13889: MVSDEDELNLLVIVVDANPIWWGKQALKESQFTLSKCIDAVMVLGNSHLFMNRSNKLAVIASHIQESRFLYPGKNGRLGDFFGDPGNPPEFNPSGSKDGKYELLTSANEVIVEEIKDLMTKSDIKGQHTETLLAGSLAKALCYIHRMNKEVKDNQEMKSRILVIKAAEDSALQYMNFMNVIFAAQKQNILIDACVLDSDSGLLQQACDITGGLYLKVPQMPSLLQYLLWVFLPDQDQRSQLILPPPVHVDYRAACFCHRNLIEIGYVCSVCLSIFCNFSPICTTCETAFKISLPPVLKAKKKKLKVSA
# UniProt Q14457, whole entry: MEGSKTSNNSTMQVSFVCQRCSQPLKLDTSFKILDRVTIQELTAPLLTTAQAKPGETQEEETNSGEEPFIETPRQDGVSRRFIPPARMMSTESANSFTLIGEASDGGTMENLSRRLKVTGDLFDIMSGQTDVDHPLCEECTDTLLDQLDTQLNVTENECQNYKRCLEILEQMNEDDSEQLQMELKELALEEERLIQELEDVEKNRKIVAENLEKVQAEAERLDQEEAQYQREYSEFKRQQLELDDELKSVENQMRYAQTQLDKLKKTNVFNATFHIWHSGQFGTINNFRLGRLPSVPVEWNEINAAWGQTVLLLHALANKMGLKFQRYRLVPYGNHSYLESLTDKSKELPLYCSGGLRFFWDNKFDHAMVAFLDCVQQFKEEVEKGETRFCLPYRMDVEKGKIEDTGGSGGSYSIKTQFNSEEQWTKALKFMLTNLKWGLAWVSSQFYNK
# UniProt Q13425: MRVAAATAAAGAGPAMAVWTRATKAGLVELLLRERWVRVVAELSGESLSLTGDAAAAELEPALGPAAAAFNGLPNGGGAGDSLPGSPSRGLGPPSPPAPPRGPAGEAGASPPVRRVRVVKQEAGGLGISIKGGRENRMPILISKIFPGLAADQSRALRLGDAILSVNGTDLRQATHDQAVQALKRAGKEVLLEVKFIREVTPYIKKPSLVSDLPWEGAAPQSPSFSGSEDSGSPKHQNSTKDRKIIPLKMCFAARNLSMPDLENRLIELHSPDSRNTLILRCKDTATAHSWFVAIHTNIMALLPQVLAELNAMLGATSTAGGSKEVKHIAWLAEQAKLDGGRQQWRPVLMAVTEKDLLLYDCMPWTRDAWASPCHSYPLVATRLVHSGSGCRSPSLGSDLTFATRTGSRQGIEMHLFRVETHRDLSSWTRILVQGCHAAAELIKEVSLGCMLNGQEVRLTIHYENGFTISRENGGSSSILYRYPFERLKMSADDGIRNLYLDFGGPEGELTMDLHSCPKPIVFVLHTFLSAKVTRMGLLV
# UniProt Q13569: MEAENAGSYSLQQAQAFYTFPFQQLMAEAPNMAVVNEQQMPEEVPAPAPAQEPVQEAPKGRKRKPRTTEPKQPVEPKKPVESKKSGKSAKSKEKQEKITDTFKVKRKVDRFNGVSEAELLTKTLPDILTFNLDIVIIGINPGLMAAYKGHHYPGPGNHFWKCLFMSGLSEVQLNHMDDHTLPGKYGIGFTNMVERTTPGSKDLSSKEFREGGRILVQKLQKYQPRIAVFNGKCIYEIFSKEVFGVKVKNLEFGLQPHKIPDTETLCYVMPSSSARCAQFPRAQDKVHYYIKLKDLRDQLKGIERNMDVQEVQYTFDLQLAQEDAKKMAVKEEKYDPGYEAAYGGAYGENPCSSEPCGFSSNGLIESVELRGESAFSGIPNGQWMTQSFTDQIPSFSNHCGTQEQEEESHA
# The list shows a part of the results. Most values lie at the level of the controls, where differences are scatter.
# Compound: CN[C@@H]1C[C@H]2O[C@@](C)([C@@H]1OC)n1c3ccccc3c3c4c(c5c6ccccc6n2c5c31)C(=O)NC4 [staurosporine]
# Experiment: log2 fold change of tryptic peptide abundance, ligand vs vehicle (limited proteolysis) (log2 ratio); higher = more trypsin-susceptible (destabilized)
# Conditions: ligand concentration: 20 uM; sample: K562 cleared lysate; digestion: 4 min, 22 C (HT-PELSA RT4min, Orbitrap Astral)
row,Target,log2 fold change
1,"JOSD1 (peptide sequence: GYEAVWWDK, peptide start residue: 95) (UniProt Q15040)",0.156
2,"EIF3A (peptide sequence: RADDDRFPR, peptide start residue: 1151) (UniProt Q14152)",0.357
3,"TNFAIP1 (peptide sequence: MEVLTDKEGWILIDR, peptide start residue: 61) (UniProt Q13829)",0.437
4,"UniProt Q14444 (peptide sequence: LDDYQER, peptide start residue: 75)",-0.0972
5,"MTMR2 (peptide sequence: VASFRSRGR, peptide start residue: 258) (UniProt Q13614)",0.241
6,"TTLL12 (peptide sequence: DCLASIAR, peptide start residue: 369) (UniProt Q14166)",0.169
7,"WTAP (peptide sequence: DKLEQAQNELSAWK, peptide start residue: 133) (UniProt Q15007)",0.582
8,"GTF2H3 (peptide sequence: AACFCHR, peptide start residue: 253) (UniProt Q13889)",-0.205
9,"BECN1 (peptide sequence: LIQELEDVEK, peptide start residue: 194) (UniProt Q14457)",-0.371
10,"SNTB2 (peptide sequence: DAWASPCHSYPLVATR, peptide start residue: 368) (UniProt Q13425)",0.522
11,"TDG (peptide sequence: GHHYPGPGNHFWK, peptide start residue: 149) (UniProt Q13569)",0.611
